No constants are given. Whether binding was seen depends on the method and setting. In cells and extracts the contact can be indirect. These calls come from enrichment with a bait or labelling near it, and not all partners need be listed.
Target: T1, phosphoglycerate dehydrogenase (Phgdh), mouse liver (mouse (endogenous in liver)) (UniProt Q61753)
T1 sequence: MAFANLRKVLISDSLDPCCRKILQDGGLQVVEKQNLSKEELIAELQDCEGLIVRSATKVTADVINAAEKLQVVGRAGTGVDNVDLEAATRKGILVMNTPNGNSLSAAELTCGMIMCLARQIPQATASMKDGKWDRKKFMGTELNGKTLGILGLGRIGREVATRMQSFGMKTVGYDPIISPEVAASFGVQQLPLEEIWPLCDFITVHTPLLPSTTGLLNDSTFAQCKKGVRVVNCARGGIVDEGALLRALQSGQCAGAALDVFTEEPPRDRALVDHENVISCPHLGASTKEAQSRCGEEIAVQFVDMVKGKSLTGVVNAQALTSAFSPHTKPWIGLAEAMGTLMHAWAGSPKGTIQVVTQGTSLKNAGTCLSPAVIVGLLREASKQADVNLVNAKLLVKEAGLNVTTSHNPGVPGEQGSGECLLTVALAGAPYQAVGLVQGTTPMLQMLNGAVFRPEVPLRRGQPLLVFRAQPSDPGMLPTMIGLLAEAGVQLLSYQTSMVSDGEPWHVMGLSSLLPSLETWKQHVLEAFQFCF
Assay: affinity purification with mass spectrometry

Chains of the proteins cited; added tags and fusions are not shown.
UniProt P01108: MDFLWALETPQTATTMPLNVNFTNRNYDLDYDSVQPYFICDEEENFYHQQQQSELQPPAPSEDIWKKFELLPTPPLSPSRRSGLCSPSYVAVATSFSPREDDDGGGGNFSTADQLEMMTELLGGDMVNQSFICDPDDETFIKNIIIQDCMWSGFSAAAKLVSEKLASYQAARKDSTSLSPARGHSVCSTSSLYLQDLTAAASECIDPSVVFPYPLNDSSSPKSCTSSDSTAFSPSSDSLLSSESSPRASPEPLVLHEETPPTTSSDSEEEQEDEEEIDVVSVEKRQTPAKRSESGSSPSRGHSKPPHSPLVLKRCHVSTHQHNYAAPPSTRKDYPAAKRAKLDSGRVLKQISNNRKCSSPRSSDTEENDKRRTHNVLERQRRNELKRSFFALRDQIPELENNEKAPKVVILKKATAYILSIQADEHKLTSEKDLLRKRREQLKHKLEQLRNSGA

Q: For “cMyc, mouse liver (from UniProt P01108 1-454)”, which binding is on record?
A: Its binding is “binds”.

Reference: doi:10.1101/2021.10.17.464745
